Data as given in PubChem BioAssay AID1159584 (Peter MacCallum Cancer Centre, 2016)

- Screen: 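Genes whose loss is lethal only together with E-cadherin loss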 (primary screen)
- Cells: human MCF10A breast epithelial cells, parental and CDH1-null
- Reagent: siRNA against human genes
- Measured: 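ATP luminescence (CellTiter-Glo) viability per line relative to mean mock wells over all plates, and the ratio of CDH1-null to parental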
- Reading the numbers: CDH1-null / parental viability ratio: higher = CDH1-null cells survive relatively better than parental; CDH1-null viability vs mock: higher = more viable CDH1-null cells; parental viability vs mock: higher = more viable parental cells
The deposit covers about 18,000 reagents; this is a random part of them. Reagents against one gene are numbered here. Not given: the amount of reagent, the time to read-out.

gene,reagent no.,CDH1-null / parental viability ratio,CDH1-null viability vs mock (fraction of mock),parental viability vs mock (fraction of mock)
SAPCD2 (suppressor APC domain containing 2),1,1.17,0.94,0.8
DELE1 (DAP3 binding cell death enhancer 1),1,1.12,0.96,0.86
AMZ2 (archaelysin family metallopeptidase 2),1,0.93,0.91,0.98
IRX4 (iroquois homeobox 4),1,0.86,0.68,0.79
ADK (adenosine kinase),1,1.08,0.98,0.91
ANP32D (acidic nuclear phosphoprotein 32 family member D),1,0.96,0.74,0.77
KLF6 (KLF transcription factor 6),1,0.67,0.44,0.66
CLEC14A (C-type lectin domain containing 14A),1,1.04,0.54,0.52
LRRC46 (leucine rich repeat containing 46),1,0.79,0.67,0.85
GOT1 (glutamic-oxaloacetic transaminase 1),1,1.19,1.12,0.94
TCOF1 (treacle ribosome biogenesis factor 1),1,0.89,0.85,0.96
FAM193B (family with sequence similarity 193 member B),1,1.14,0.64,0.56
RPL13 (ribosomal protein L13),1,1.33,0.64,0.48
ZNF394 (zinc finger protein 394),1,1.41,0.62,0.44
CCDC7 (coiled-coil domain containing 7),1,1.21,0.97,0.8
CCDC7 (coiled-coil domain containing 7),2,1.23,0.7,0.57
SLC5A2,1,0.85,0.86,1.01
BLNK (B cell linker),1,1.15,0.78,0.68
SLC25A1,1,0.99,1.11,1.12
MRPS15 (mitochondrial ribosomal protein S15),1,1.24,0.88,0.71
ANK3 (ankyrin 3),1,0.95,1,1.05
EML3 (EMAP like 3),1,1.03,0.68,0.66
FHIP2B (FHF complex subunit HOOK interacting protein 2B),1,1.29,0.9,0.7
GPRC5A (G protein-coupled receptor class C group 5 member A),1,0.79,0.66,0.84
CTXN3 (cortexin 3),1,0.96,0.94,0.98
IQSEC1 (IQ motif and Sec7 domain ArfGEF 1),1,0.64,0.37,0.58
CASTOR1 (cytosolic arginine sensor for mTORC1 subunit 1),1,1.24,0.94,0.76
PRORP (protein only RNase P catalytic subunit),1,0.78,0.61,0.78
PDGFRB (platelet derived growth factor receptor beta),1,1,0.8,0.8
PXDNL (peroxidasin like),1,1.03,0.78,0.76
VWC2L (von Willebrand factor C domain containing 2 like),1,1.22,0.67,0.55
SPO11 (SPO11 initiator of meiotic double strand breaks),1,1.13,0.77,0.68
TPD52 (tumor protein D52),1,1.21,1.14,0.94
RMDN1 (regulator of microtubule dynamics 1),1,1.1,0.87,0.79
STAU1 (staufen double-stranded RNA binding protein 1),1,1.27,1.04,0.82
PPRC1 (PPARG related coactivator 1),1,0.94,0.63,0.67
STXBP1 (syntaxin binding protein 1),1,1.19,0.94,0.79
AMIGO1 (adhesion molecule with Ig like domain 1),1,1.12,0.92,0.82
GRM8 (glutamate metabotropic receptor 8),1,1.46,1.02,0.7
KLC1 (kinesin light chain 1),1,1.24,0.94,0.76
KCNK15 (potassium two pore domain channel subfamily K member 15),1,1.2,1.01,0.84
ANKFN1 (ankyrin repeat and fibronectin type III domain containing 1),1,0.87,0.83,0.95
EPHA8 (EPH receptor A8),1,0.97,0.76,0.78
GOLGA8G (golgin A8 family member G),1,1.03,0.92,0.89
MAG (myelin associated glycoprotein),1,0.84,0.42,0.5
BARHL2 (BarH like homeobox 2),1,0.98,0.65,0.66
ZNF414 (zinc finger protein 414),1,0.97,0.7,0.72
FDFT1 (farnesyl-diphosphate farnesyltransferase 1),1,0.91,0.79,0.87
"RAB8A (RAB8A, member RAS oncogene family)",1,0.95,0.78,0.82
KLHDC1 (kelch domain containing 1),1,1.42,1.02,0.72
ADAM2 (ADAM metallopeptidase domain 2),1,1.03,0.72,0.7
AGR2,1,0.75,0.36,0.48
AGTRAP (angiotensin II receptor associated protein),1,1.48,0.89,0.6
ZMAT5 (zinc finger matrin-type 5),1,0.84,0.74,0.88
PDIA2 (protein disulfide isomerase family A member 2),1,1.13,1.19,1.05
BFSP1 (beaded filament structural protein 1),1,1.36,0.6,0.44
ASMT (acetylserotonin O-methyltransferase),1,1.09,0.5,0.46
ZNF616 (zinc finger protein 616),1,1.15,1.01,0.88
ZBED8 (zinc finger BED-type containing 8),1,1,0.66,0.66
CD200 (CD200 molecule),1,0.92,0.57,0.62
NKTR (natural killer cell triggering receptor),1,1.07,1.04,0.97
ACOT7 (acyl-CoA thioesterase 7),1,0.93,0.88,0.95
SLC10A7,1,1.07,0.96,0.9
HNRNPUL2 (heterogeneous nuclear ribonucleoprotein U like 2),1,1.1,0.55,0.5
"SUPT7L (SPT7 like, STAGA complex subunit gamma)",1,0.86,0.88,1.02
AVEN (apoptosis and caspase activation inhibitor),1,1.14,0.99,0.87
GPR4 (G protein-coupled receptor 4),1,0.89,0.62,0.7
CBX7 (chromobox 7),1,1.04,0.78,0.75
ADCY3 (adenylate cyclase 3),1,1.11,0.97,0.87
SLC35G5,1,1.36,0.76,0.56
"FAM86C1P (family with sequence similarity 86 member C1, pseudogene)",1,1.22,0.66,0.54
HSPA5 (heat shock protein family A (Hsp70) member 5),1,0.95,0.77,0.81
TM4SF1 (transmembrane 4 L six family member 1),1,0.72,0.46,0.64
MARK2 (microtubule affinity regulating kinase 2),1,0.68,0.54,0.8
ZNG1C (Zn regulated GTPase metalloprotein activator 1C),1,1.04,0.55,0.53
TXNDC8 (thioredoxin domain containing 8),1,1.11,0.8,0.72
TMEM18 (transmembrane protein 18),1,0.98,0.78,0.8
CHURC1 (churchill domain containing 1),1,1.04,0.84,0.81
SNRNP200 (small nuclear ribonucleoprotein U5 subunit 200),1,1.25,0.2,0.16
KBTBD4 (kelch repeat and BTB domain containing 4),1,1.17,0.34,0.29
GPR180 (G protein-coupled receptor 180),1,1.11,0.98,0.88
PARP12 (poly(ADP-ribose) polymerase family member 12),1,1,0.9,0.9
WDR18 (WD repeat domain 18),1,0.81,0.38,0.47
ARID1A (AT-rich interaction domain 1A),1,0.83,0.8,0.96
MYOT (myotilin),1,1.02,0.96,0.94
SLC7A8,1,0.95,0.88,0.93
PLAA (phospholipase A2 activating protein),1,1,0.68,0.68

Limited to “CDH1-null viability vs mock (fraction of mock)” (6 entries from above):
PDGFRB (platelet derived growth factor receptor beta)	0.8
PXDNL (peroxidasin like)	0.78
VWC2L (von Willebrand factor C domain containing 2 like)	0.67
SPO11 (SPO11 initiator of meiotic double strand breaks)	0.77
TPD52 (tumor protein D52)	1.14
RMDN1 (regulator of microtubule dynamics 1)	0.87
